These results are taken from the supplement of paper PMC8728848.

What all share (test): glycan array binding signal (z-score within array); higher = stronger binding
Details in all cases: glycan notation: IUPAC condensed, linker removed

Experiment [1] addresses Gal(b1-4)GlcNAc(b1-2)Man(a1-6)[GlcNAc(b1-2)Man(a1-3)]Man(b1-4)GlcNAc(b1-4)GlcNAc. In a few lines:
(§1)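 From the Consortium for Functional Glycomics database, 3228 arrays were curated, keeping only those whose protein sequence was available. Binding is given as a within-array Z-score averaged across arrays sharing a protein sequence and across linkers. Negative Z-scores can be read as non-binding.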

Experiment [2] addresses Gal(b1-4)GlcNAc(b1-2)Man(a1-6)[Man(a1-3)]Man(b1-4)GlcNAc(b1-4)GlcNAc. In a few lines:
as §1

Experiment [3] has as its target Gal(b1-4)GlcNAc(b1-2)[Gal(b1-4)GlcNAc(b1-4)]Man(a1-3)[Gal(b1-4)GlcNAc(b1-2)Man(a1-6)]Man(b1-4)GlcNAc(b1-4)GlcNAc. In a few lines:
as §1

Experiment [4] deals with Gal(b1-4)GlcNAc(b1-2)[Gal(b1-4)GlcNAc(b1-4)]Man(a1-3)[Gal(b1-4)GlcNAc(b1-2)[Gal(b1-4)GlcNAc(b1-6)]Man(a1-6)]Man(b1-4)GlcNAc(b1-4)GlcNAc. In short, it runs like this:
as §1

Experiment [5] has as its target Gal(b1-4)GlcNAc(b1-2)[Gal(b1-4)GlcNAc(b1-4)]Man(a1-3)[GlcNAc(b1-4)][Gal(b1-4)GlcNAc(b1-2)Man(a1-6)]Man(b1-4)GlcNAc(b1-4)GlcNAc. In a few lines:
as §1

Experiment [6] addresses Gal(b1-4)GlcNAc(b1-2)[Gal(b1-4)GlcNAc(b1-4)]Man(a1-3)[GlcNAc(b1-4)][Gal(b1-4)GlcNAc(b1-2)[Gal(b1-4)GlcNAc(b1-6)]Man(a1-6)]Man(b1-4)GlcNAc(b1-4)GlcNAc. In short, it runs like this: as §1
Experiment [7] has as its target Gal(b1-4)GlcNAc(b1-2)[Gal(b1-4)GlcNAc(b1-6)]Man(a1-6)[Gal(b1-4)GlcNAc(b1-2)Man(a1-3)]Man(b1-4)GlcNAc(b1-4)GlcNAc. In a few lines: as §1
Experiment [8] concerns the target Gal(b1-4)GlcNAc(b1-2)[Gal(b1-4)GlcNAc(b1-6)]Man(a1-6)[Gal(b1-4)GlcNAc(b1-2)Man(a1-3)]Man(b1-4)GlcNAc(b1-4)[Fuc(a1-6)]GlcNAc. In short, it runs like this: as §1
Experiment [9] deals with Gal(b1-4)GlcNAc(b1-2)[Gal(b1-4)GlcNAc(b1-6)]Man(a1-6)[GlcNAc(b1-4)][Gal(b1-4)GlcNAc(b1-2)Man(a1-3)]Man(b1-4)GlcNAc(b1-4)GlcNAc. In a few lines: as §1
Experiment [10] concerns the target Gal(b1-4)GlcNAc(b1-2)[Gal(b1-4)GlcNAc(b1-6)]Man(a1-6)[GlcNAc(b1-4)][Gal(b1-4)GlcNAc(b1-2)[Gal(b1-4)GlcNAc(b1-4)]Man(a1-3)]Man(b1-4)GlcNAc(b1-4)[Fuc(a1-6)]GlcNAc. In a few lines:
as §1

The target of experiment [11] is Gal(b1-4)GlcNAc(b1-3)Gal(b1-3)GalNAc. In short, it runs like this: as §1
Experiment [12] concerns the target Gal(b1-4)GlcNAc(b1-3)Gal(b1-3)GlcNAc. In a few lines:
as §1

Experiment [13] has as its target Gal(b1-4)GlcNAc(b1-3)Gal(b1-4)Glc. In short, it runs like this:
as §1

Experiment [14] has as its target Gal(b1-4)GlcNAc(b1-3)Gal(b1-4)GlcNAc. In a few lines:
as §1

Experiment [15] has as its target Gal(b1-4)GlcNAc(b1-3)Gal(b1-4)GlcNAc(b1-2)Man(a1-3)[Gal(b1-4)GlcNAc(b1-3)Gal(b1-4)GlcNAc(b1-2)Man(a1-6)]Man(b1-4)GlcNAc(b1-4)GlcNAc. In short, it runs like this:
as §1

Experiment [16] addresses Gal(b1-4)GlcNAc(b1-3)Gal(b1-4)GlcNAc(b1-2)Man(a1-3)[Gal(b1-4)GlcNAc(b1-3)Gal(b1-4)GlcNAc(b1-2)Man(a1-6)]Man(b1-4)GlcNAc(b1-4)[Fuc(a1-6)]GlcNAc. In a few lines:
as §1

The target in experiment [17] is Gal(b1-4)GlcNAc(b1-3)Gal(b1-4)GlcNAc(b1-2)[Gal(b1-4)GlcNAc(b1-3)Gal(b1-4)GlcNAc(b1-6)]Man(a1-6)[Gal(b1-4)GlcNAc(b1-3)Gal(b1-4)GlcNAc(b1-2)Man(a1-3)]Man(b1-4)GlcNAc(b1-4)GlcNAc. In a few lines:
as §1

Experiment [18] addresses Gal(b1-4)GlcNAc(b1-3)Gal(b1-4)GlcNAc(b1-2)[Gal(b1-4)GlcNAc(b1-3)Gal(b1-4)GlcNAc(b1-6)]Man(a1-6)[Gal(b1-4)GlcNAc(b1-3)Gal(b1-4)GlcNAc(b1-2)Man(a1-3)]Man(b1-4)GlcNAc(b1-4)[Fuc(a1-6)]GlcNAc. In a few lines: as §1
For experiment [19], the target named is Gal(b1-4)GlcNAc(b1-3)Gal(b1-4)GlcNAc(b1-3)Gal(b1-4)GlcNAc. In short, it runs like this: as §1
The target of experiment [20] is Gal(b1-4)GlcNAc(b1-3)Gal(b1-4)GlcNAc(b1-3)Gal(b1-4)GlcNAc(b1-2)Man(a1-3)[Gal(b1-4)GlcNAc(b1-3)Gal(b1-4)GlcNAc(b1-3)Gal(b1-4)GlcNAc(b1-2)Man(a1-6)]Man(b1-4)GlcNAc(b1-4)GlcNAc. In short, it runs like this:
as §1

Experiment [21] has as its target Gal(b1-4)GlcNAc(b1-3)Gal(b1-4)GlcNAc(b1-3)Gal(b1-4)GlcNAc(b1-2)Man(a1-3)[Gal(b1-4)GlcNAc(b1-3)Gal(b1-4)GlcNAc(b1-3)Gal(b1-4)GlcNAc(b1-2)Man(a1-6)]Man(b1-4)GlcNAc(b1-4)[Fuc(a1-6)]GlcNAc. In a few lines:
as §1

Experiment [22] deals with Gal(b1-4)GlcNAc(b1-3)Gal(b1-4)GlcNAc(b1-3)Gal(b1-4)GlcNAc(b1-2)[Gal(b1-4)GlcNAc(b1-3)Gal(b1-4)GlcNAc(b1-3)Gal(b1-4)GlcNAc(b1-6)]Man(a1-6)[Gal(b1-4)GlcNAc(b1-3)Gal(b1-4)GlcNAc(b1-3)Gal(b1-4)GlcNAc(b1-2)Man(a1-3)]Man(b1-4)GlcNAc(b1-4)[Fuc(a1-6)]GlcNAc. In a few lines:
as §1

This is one part of the list.

B1: XTP3-B-MRH1 (Homo sapiens), Q96DZ1 (protein)
chain: LLEPLFKQSSCSYRIESYWTYEVCHGKHIRQYHEEKETGQKINIHEYYLGNMLAKNLLFEKEREAEEKEKSNEIPTKNIEGQMTPYYPVGMGNGTPCSLKQNRPRSSTVMYICHPESKHEILSVAEVTTCEYEVVILTPLLCSHPKYRFRA
Take B1: the “glycan array binding signal (z-score)” value in [1] is -0.335; in experiment [2] it was -0.267; in experiment [3] it was -0.173; in experiment [4] it was 0.388; in experiment [5] it was -0.081; in experiment [6], 0.945. In addition, the “glycan array binding signal (z-score)” value was -0.7 in experiment [7]; 1.61 in [8]; -0.494 in experiment [9]; -0.141 in [10]; -1.39 in experiment [11]; -0.167 in [12]. Also, the “glycan array binding signal (z-score)” value is -0.377 in [13]; 2.97 in [14]; 3.79 in experiment [15]; 1.96 in experiment [16]; 0.072 in [17]; 1.26 in experiment [18]. For the same molecule, the “glycan array binding signal (z-score)” value turned out to be 1.11 in experiment [19], 0.049 in experiment [20], 1.67 in [21] and 1.19 in experiment [22].
